By cell viability is commonly meant a read-out of living cells in per cent, often relative to untreated cells.

Structures are written as SMILES. About 45 (2%) of roughly 3,000 compounds showed an effect of 50% or more. The list shows a part of the results.

The results in this text go back to the supplement of paper PMC11150407.

The experiment concerns MOLM1 and UCSD/AML1 (averaged). Put plainly: cell viability relative to DMSO control (POC); higher = less growth inhibition. As to conditions: 1 µM; 72 h. Here is the method: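 Primary viability screen in the 3q26 EVI1-high AML cell lines MOLM1 and UCSD/AML1, compounds at 1 uM for 72 h. ATP CellTiter-Glo read-out given as percent viable over DMSO control (POC), averaged over duplicates. This mapping covers the TimTec NDL-3000 natural derivative library, whose compounds are identified by TimTec catalogue codes (ST...).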
Take `CC(C)(C)c1ccc(C(=O)/C=C/c2ccc(Cl)cc2Cl)cc1`: the cell viability came out at 100%. Take `O=C(O)CNC(=O)c1ccc(NS(=O)(=O)c2ccc3c(c2)OCCO3)cc1`: the cell viability is 94.1%. With `Cc1cc(C)c(NC(=O)Cn2c(=O)cc(C(=O)N3CCc4ccccc4C3)c3ccccc32)c(C)c1`, the cell viability was found to be 100%.

Turning to `Cc1ccc2nc(-c3ccc(C)c(NC(=O)c4ccc5c(c4)OCCO5)c3)oc2c1`, the cell viability worked out at 106%.

On to `COc1ccc(C2C3CCCCC3(O)CCN2C(=O)/C=C/c2ccc(C(C)C)cc2)c(OC)c1` (stereo not given), for which the cell viability was determined as 99.4%. As for `O=C1C[C@H](n2nc(-c3ccccc3Br)oc2=S)[C@H]2CO[C@@H]1O2`, the cell viability came to 55.5%. Take `COc1ccc(C(=O)C2[C@H]3C4COC(O4)C(=O)[C@H]3[C@@H]3c4ccccc4C=CN23)cc1OC` (stereo not given in full): the cell viability is 102%. Consider `Cc1cc(C(=O)NCCc2c(C)[nH]c3ccccc23)ccc1[N+](=O)[O-]`, for which the cell viability is 94.1%.

On to `CC(=O)CSc1nc2c(c(=O)[nH]c(=O)n2C)n1Cc1cccc(C)c1`, for which the cell viability is 106%. As for `Cc1cc(Oc2ccc(C)c(Cl)c2)nc(SCC(=O)c2ccccc2)n1`, the cell viability was found to be 88.2%. For the compound `CC(=NCCc1c(C)[nH]c2ccccc12)c1c(C)[nH]n(-c2nc3ccccc3s2)c1=O`, the cell viability stood at 96.3%.

As for `COC(=O)c1c(C)n(CCOc2ccc(F)cc2)c2ccc(O)cc12`, the cell viability is 96.9%. Regarding `COc1ccc(C(=O)Nc2sc3c(c2C(N)=O)CCCC3)cc1OC`, the cell viability stood at 95.1%. `Cc1cc2c(c(O)c1-c1c(C)cc3c(c1O)/C(=C/Nc1cccc4c(N)cccc14)C(=O)C(O)=C3C(C)C)/C(=C/Nc1cccc3c(N)cccc13)C(=O)C(O)=C2C(C)C`: the cell viability amounted to 70.8%. Take `COc1cc(C(=O)Nc2ccccc2OC(C)C)cc(OC)c1OC`: the cell viability came out at 83.4%. As to `Nc1c(C(=O)N2CCC[C@H]2C(=O)O)sc2nc(-c3ccccc3)cc(-c3ccccc3)c12`, the cell viability was 95.6%.

For the compound `N#CC1=C(N)OC2=C(COc3ccccc32)C1c1cccc(Cl)c1` (stereo not given), the cell viability is 106%.

Regarding `CC(C)CC(Nc1c(C(=O)Nc2ccc(Cl)cc2)cc([N+](=O)[O-])cc1[N+](=O)[O-])C(=O)O` (stereo not given), the cell viability was 95.8%.

Turning to `O=C1C[C@H](n2nnn(-c3cccc(O)c3)c2=S)[C@H]2CO[C@@H]1O2`, the cell viability is 88.1%. The figure for `CCCCOc1ccc(C(=O)/C=C/c2ccc(Cl)cc2Cl)cc1OCCCC` is 101%; for `COc1ccc(C2c3[nH]c4ccccc4c3CCN2C(=O)/C=C/c2ccc(OC)c(OC)c2)cc1` (stereo not given) it is 81.9%; for `COC(=O)c1ccc(NC(=O)c2cc(OC)c(OC)c(OC)c2)cc1` it is 23.1%. For `O=C(/C=C/c1ccc2c(c1)OCO2)NCCSCc1cccc(Cl)c1`, the cell viability came out at 114%. With `COc1ccc(-c2cc(-c3ccc(C)cc3)c(C#N)c(=O)[nH]2)cc1`, the cell viability was 101%. Regarding `C=CCN(C(=O)CSc1nc2ccccc2c(=O)[nH]1)c1ccccc1`, the cell viability was 88.4%. The same measure for `O=c1ccc2ccccc2[nH]1`: 95.3%.

Consider `CCc1ccc2oc(=O)cc(CN3CCN(c4cc(C)ccc4C)CC3)c2c1`, for which the cell viability worked out at 124%.

For the compound `CCCCc1ccc(NC(=O)c2cc(OC)c(OC)c(OC)c2)cc1`, the cell viability was determined as 49.6%. Take `CCc1ccc2oc(=O)cc(CN3CCN(CC(=O)Nc4cccc(SC)c4)CC3)c2c1`: the cell viability worked out at 97.6%. In the case of `COc1cc(OC)c(C2NC(C(=O)O)Cc3c2[nH]c2ccccc32)cc1OC` (stereo not given), the cell viability came to 107%.

Turning to `O=c1cc(C(Cl)(Cl)Cl)oc2ccccc12`, the cell viability came out at 4.98%. With `O=C(Nc1ccc(Cl)cc1Cl)c1c(O)c2ccccc2[nH]c1=O`, the cell viability came out at 101%. As to `COc1cc(C2C(C(=O)OC3CCCC3)=C(C)NC3=C2C(=O)CC(C)(C)C3)cc(Br)c1O` (stereo not given), the cell viability is 106%.

`CCCCCOC(=O)C1=C(C)NC2=C(C(=O)CCC2)C1c1cc(Cl)c(O)c(OC)c1` (stereo not given): the cell viability worked out at 100%.

As for `CCN(CC)C(=O)c1ccc(OCc2csc(C)n2)c(OC)c1`, the cell viability is 91.6%.

`CC(=O)Nc1ccc(NC(C)=O)c(NC2OC(CO)C(OC3OC(CO)C(O)C(O)C3O)C(O)C2O)c1` (stereo not given): the cell viability turned out to be 103%. For the compound `CCn1c(SCc2nc(-c3ccccc3)oc2C)nc2c(=O)[nH]cnc21`, the cell viability stood at 96.8%. In the case of `COc1ccc(-c2c(C)c3cc(Cl)c(O)cc3oc2=O)cc1OC`, the cell viability stood at 85.4%. For the compound `CC(=O)NCCc1c[nH]c2ccc(O)cc12`, the cell viability was 103%.

In the case of `C=C1C(NC(=O)c2cc(OCC)c(OCC)c(OCC)c2)=C(C)N(C)N1c1ccccc1`, the cell viability was 99.9%. The figure for `O=C(Cn1c(=O)cc(C(=O)N2CCCC2)c2ccccc21)Nc1ccc(Br)cc1` is 96.6%; for `COC(=O)c1ccc2c(c1)C(=O)/C(=C/c1ccc(O)c(OC)c1)O2` it is 84.6%. For the compound `COc1cc(-c2nnc(NC(=O)c3ccc(C)cc3)o2)cc(OC)c1OC`, the cell viability turned out to be 101%. For `COc1cc(OC)cc(C(=O)Nc2ccc(NC(C)=O)cc2)c1`, the cell viability is 106%. With `Cn1c2ccccc2c2cc(/C=C/C(=O)c3ccc4ccccc4c3O)ccc21`, the cell viability was found to be 106%.

With `Cc1ccc(COc2ccc(C3Nc4ccccc4NC4=C3C(=O)CC(C)(C)C4)cc2Cl)cc1` (stereo not given), the cell viability is 105%. With `O=C(CCNc1ccc(Oc2ccc(Cl)cc2)cc1)c1cc2ccccc2oc1=O`, the cell viability was 92.7%. Take `CCCOc1ccc(-c2cc(CSc3nc4c(=O)[nH]cnc4n3C)c(C)o2)cc1`: the cell viability was 97.4%. For the compound `C=CCOC(=O)C1=C(C)NC(S)=C(C#N)C1c1ccc(OC)cc1` (stereo not given), the cell viability amounted to 112%. On to `COc1ccc(CSc2nc3c(=O)[nH]cnc3n2-c2ccc(C)cc2)cc1`, for which the cell viability is 99.3%. As for `CC(C)(C)c1ccc(-c2oc3ccccc3c(=O)c2OCC#N)cc1`, the cell viability turned out to be 88.8%. As for `O=C(Cn1c(=O)cc(C(=O)N2CCOCC2)c2ccccc21)Nc1ccccc1`, the cell viability stood at 97.6%. For `O=C(CCl)NC(Cc1c[nH]c2cc(OCc3ccccc3)ccc12)C(=O)O` (stereo not given), the cell viability came out at 101%. As to `Cn1c(=O)c(C(=O)Nc2cccc(Cl)c2Cl)c(O)c2ccccc21`, the cell viability came to 110%. Consider `N#CC1=C(N)Oc2cc(O)ccc2C1c1cccc([N+](=O)[O-])c1` (stereo not given), for which the cell viability worked out at 101%. As for `COc1ccc(/C=C2/N=C(c3ccccc3)N(Nc3nc(Nc4ccc([N+](=O)[O-])cc4O)nc(Nc4ccc([N+](=O)[O-])cc4O)n3)C2=O)cc1`, the cell viability was determined as 87.3%. Turning to `CCCC(NC(=O)C(C)N)C(=O)O` (stereo not given), the cell viability is 116%. With `Cc1ccc2c(CN3CCN(Cc4ccc(F)cc4Cl)CC3)cc(=O)oc2c1`, the cell viability is 122%.

In the case of `O=C(CSc1nc2c(=O)[nH]cnc2n1-c1ccccc1)Nc1ccc(F)cc1`, the cell viability was found to be 96.9%. `COc1ccc(-c2cn3c4c(=O)n(C)c(=O)n(C)c4nc3n2Cc2ccccn2)cc1`: the cell viability was 99.1%. Take `O=C(O)c1ccc2cccc(O)c2n1`: the cell viability is 92.5%.

On to `COC(=O)c1ccc(C(=O)NCCc2c(C)[nH]c3ccc(OCc4ccccc4)cc23)cc1`, for which the cell viability is 105%. Turning to `CCOc1cc(C(=O)Nc2cccnc2)cc(OCC)c1OCC`, the cell viability was 103%.

`Cc1[nH]c2c(Cl)cccc2c1CCNC(=O)c1cc([N+](=O)[O-])cc([N+](=O)[O-])c1`: the cell viability was determined as 92.7%. The figure for `CCOC(=O)c1c(CSc2ccc(C)cc2)n(C)c2cc(Br)c(OC(C)=O)cc12` is 77.6%; for `O=C1C2OCC(O2)C2C1[C@H]2C(=O)C12CC3CC(CC(C3)C1)C2` (stereo not given in full) it is 88.9%; for `COc1ccc(C(=O)Nc2ccc3ncn(C)c3c2)cc1OC` it is 101%. As to `COC(=O)C1=C(C)NC(SCC(=O)c2ccc3c(c2)OCO3)=C(C#N)C1c1cccs1` (stereo not given), the cell viability was found to be 95.7%. Turning to `Cc1cc(C)c2c(CN3CCC4(CC3)OCCO4)cc(=O)oc2c1`, the cell viability was found to be 95.6%. `COc1ccccc1-c1nc(CSc2nc3c(=O)[nH]cnc3n2-c2ccc(C)cc2)c(C)o1`: the cell viability was 103%. The figure for `COc1ccccc1-c1oc2ccccc2c(=O)c1OC(=O)c1cccs1` is 90.1%; for `CCOC(=O)c1c(C)n(CCOc2ccccc2Cl)c2ccc(O)cc12` it is 94.8%. The same measure for `CCN(CC)c1ccc2cc(-c3ccc(OC)cc3)c(=O)oc2c1`: 88.7%; for `CCN(CC)C(=O)c1cc(=O)n(CC(=O)Nc2ccc(Br)cc2F)c2ccccc12`: 98.8%; for `O=C(OCc1ccccc1)C1CCCN1c1nc(-c2ccc(F)cc2)cs1` (stereo not given): 101%. Consider `COc1ccc(/C=C2\CCc3ccccc3C2=O)cc1COc1ccc([N+](=O)[O-])c(C)c1`, for which the cell viability is 106%. With `O=c1[nH]cc(I)c(=O)[nH]1`, the cell viability worked out at 98.6%. As to `Cn1c(COc2ccccc2)nnc1SCc1cc(=O)[nH]c2ccccc12`, the cell viability worked out at 110%. With `COc1ccc2c(C)c(CCC(=O)NCc3ccc4c(c3)OCO4)c(=O)oc2c1`, the cell viability worked out at 101%. Regarding `CCC(CC)NCc1cc(OC)c(O)c(OC)c1`, the cell viability stood at 101%.

Turning to `COc1cc(OC)cc(C(=O)N2CCN(Cc3ccccc3F)CC2)c1`, the cell viability is 102%. With `COCCC(=O)[C@@]12O[C@@H]1CC1C3CC=C4CC(O)CCC4(C)C3CCC12C` (stereo not given in full), the cell viability was 99.1%.

Consider `Cn1c(SCC(=O)Nc2ccccc2C(F)(F)F)nc2c(=O)[nH]cnc21`, for which the cell viability was found to be 97.5%. As to `COc1ccc(S(=O)(=O)NCC2(C)CCCC3(C)c4ccc(C(C)C)cc4CCC23)cc1C` (stereo not given), the cell viability was found to be 91.9%.

`O=C(CSc1nc2ccccc2c(=O)[nH]1)NCc1ccc2c(c1)OCO2`: the cell viability worked out at 103%. As to `COc1cc(C(=O)Nc2cc(C(F)(F)F)ccc2N2CCCCC2)ccc1Oc1cc([N+](=O)[O-])cc(C(F)(F)F)c1`, the cell viability was 103%. The same measure for `COc1cc(C2NC(=O)CCC2[N+](=O)[O-])c(Br)c(OC)c1OC` (stereo not given): 123%. In the case of `O=C(/C=C/c1ccc(NC(=O)c2cc(N3C(=O)c4ccccc4C3=O)cc(N3C(=O)c4ccccc4C3=O)c2)cc1)c1ccccc1`, the cell viability turned out to be 102%. In the case of `O=C(O)C(Cc1ccccc1)N1C(=O)c2ccccc2C1=O` (stereo not given), the cell viability is 108%. The figure for `Cn1c2c(c(=O)n(C)c1=O)C(c1ccc(Cl)cc1)C(C#N)=C(N)O2` (stereo not given) is 93.6%. The same measure for `COC(=O)Nc1c(C(=O)OC)cc(OC)c(OC)c1OC`: 89.1%. Regarding `O=C(O)c1cc(-c2ccc(Cl)cc2)nc2ccccc12`, the cell viability is 90.6%. Consider `O=C(Nc1ccnc(=O)[nH]1)c1ccccc1`, for which the cell viability is 100%.

In the case of `O=C(CCNc1ccc(C(=O)N2CCCCC2)cc1)c1cc2ccccc2oc1=O`, the cell viability came out at 91.7%. The same measure for `O=c1oc2ccccc2cc1-c1ccc(Cl)cc1`: 87.8%.

Consider `N#CCOc1ccc2c(=O)c(Oc3ccccc3Cl)coc2c1`, for which the cell viability was 104%. `COc1cc(CCC(=O)N2CCCc3cc(Br)ccc32)cc(OC)c1OC`: the cell viability came out at 87.4%.

As for `CCOc1ccc2oc(=O)cc(CN3CCNCC3)c2c1`, the cell viability was found to be 90.2%.

As for `CC1(C)Cn2c(nc(=O)c(Br)c2N)S1`, the cell viability turned out to be 98.6%. As for `COc1cc(C2CC(=O)Nc3nc(N)sc32)cc(OC)c1O` (stereo not given), the cell viability amounted to 112%.
